The supplement of paper PMC3334620
The full ranking holds about 33,000 sequences; the median of “E-score (-0.5 to 0.5)” is about -0.015, and the highest 2% start at about 0.3. The list shows a part of the results.

Biological target: T1, Abf1 (UniProt P14164)
T1 sequence: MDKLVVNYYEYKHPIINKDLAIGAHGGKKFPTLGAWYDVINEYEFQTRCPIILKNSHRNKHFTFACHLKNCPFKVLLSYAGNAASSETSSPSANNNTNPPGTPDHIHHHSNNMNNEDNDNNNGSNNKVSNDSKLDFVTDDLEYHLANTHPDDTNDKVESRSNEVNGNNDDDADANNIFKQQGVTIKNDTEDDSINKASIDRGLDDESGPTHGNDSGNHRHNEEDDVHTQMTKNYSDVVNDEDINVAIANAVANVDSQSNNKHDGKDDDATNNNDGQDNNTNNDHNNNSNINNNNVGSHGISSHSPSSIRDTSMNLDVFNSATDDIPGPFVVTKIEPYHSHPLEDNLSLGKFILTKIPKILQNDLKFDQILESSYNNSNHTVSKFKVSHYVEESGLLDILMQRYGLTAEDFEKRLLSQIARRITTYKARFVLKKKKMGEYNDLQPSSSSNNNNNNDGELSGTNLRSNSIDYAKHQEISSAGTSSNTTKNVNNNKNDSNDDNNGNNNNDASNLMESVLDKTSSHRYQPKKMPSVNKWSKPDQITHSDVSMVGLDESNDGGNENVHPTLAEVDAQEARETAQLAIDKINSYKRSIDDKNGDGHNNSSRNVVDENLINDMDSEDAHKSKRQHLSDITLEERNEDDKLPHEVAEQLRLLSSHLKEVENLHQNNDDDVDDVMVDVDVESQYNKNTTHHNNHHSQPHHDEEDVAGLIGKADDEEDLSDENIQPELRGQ
Assay: PBM E-score (8-mer binding enrichment) (E-score (-0.5 to 0.5)); higher = stronger / more preferred TF binding
Details: protein concentration: 200 nM; construct: GST-full length
Method: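 Universal 'all 10-mer' protein binding microarrays (Agilent AMADID 015681) probed with GST-tagged S. cerevisiae TFs (full-length or DBD) made by in vitro transcription/translation (PURExpress), about 100-200 nM. Bound TF was detected with fluorescent anti-GST. Each ungapped 8-mer (which stands for itself and its reverse complement) is scored by the PBM enrichment score (E-score), a modified Wilcoxon-Mann-Whitney statistic from -0.5 to +0.5, computed with the Universal PBM Analysis Suite. Scale: above 0.35 generally sequence-specific binding.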

| Sequence | PBM E-score |
| --- | --- |
| CGGCGAAG | 0.0243 |
| CGCGCGTA | -0.0596 |
| AACAAATC | 0.171 |
| TGTCTCAA | 0.076 |
| GTCTACCA | -0.0632 |
| AGGTTATG | -0.0367 |
| GCTATCAA | 0.0368 |
| GAAGCTAA | -0.0134 |
| AGCTCGAT | -0.0739 |
| GATCTGGA | -0.0747 |
| ACAGTATA | -0.0162 |
| CTGTAAAA | -0.0504 |
| GCTACTCC | -0.258 |
| ACAAACTA | 0.123 |
| ATTCTTAG | -0.145 |
| GGCATCTA | 0.0789 |
| GGACGTCA | 0.0888 |
| CCCCCGTC | 0.0124 |
| AATTCTCG | 0.162 |
| ACACCCTG | -0.0552 |
| GGCATGAA | -0.0305 |
| AATGCAAA | 0.111 |

| Sequence | PBM E-score |
| --- | --- |
| GATTAACC | -0.142 |
| CCGCGTCC | -0.0279 |
| AATGTAAT | 0.222 |
| AGAACGCC | -0.201 |
| CCGGCGAA | -0.102 |
| CGGTCCCA | -0.0145 |
| ACCCTGTC | -0.17 |
| AGTAAGTA | 0.182 |
| AATCCGGG | -0.261 |
| AGGCACTC | -0.109 |
| CGGCTACA | -0.213 |
| GCTTTTCA | -0.0944 |
| CTCTCCCC | -0.158 |
| CGTCACGA | 0.336 |
| AATGTTGT | 0.0602 |
| GTCACGTA | 0.158 |
| CTCGCGAG | -0.232 |
| AATAGATA | 0.0138 |
| ATGGTCTC | 0.00673 |
| ATCGAGCA | -0.0798 |
| ACTGGTTC | -0.023 |
| CCGCTGCG | -0.115 |

An excerpt taken from the entries so far, as a working copy:

| Sequence | PBM E-score |
| --- | --- |
| ACAAACTA | 0.123 |
| ATTCTTAG | -0.145 |

Going on with the list:

| Sequence | PBM E-score |
| --- | --- |
| GGAGCCAC | -0.32 |
| ACTATTAT | 0.199 |
| CAAATGGG | -0.163 |
| CGCAGGCA | -0.0438 |
| ATACGTAA | 0.24 |
| CCAACCAG | -0.184 |
| CACGCCGA | -0.258 |
| GTTCCACA | -0.0914 |
| GGGCACCA | -0.229 |
| CGGTCGCA | -0.0853 |
| CTCTCTAC | 0.0181 |
| CCGACACG | 0.0415 |
| ATGGGTGA | 0.105 |
| GATTATCC | 0.152 |
| CCACGGGA | 0.109 |
| CACCCACA | 0.0828 |
| AGGTACAC | -0.264 |
| TAGACCCA | -0.182 |
| ACTGTAGC | -0.0903 |
| AAAAAAAA | 0.0335 |
| CTCTAGCA | -0.173 |
| CGGCCGTA | 0.235 |

| Sequence | PBM E-score |
| --- | --- |
| AATCTTGG | -0.121 |
| AGGAAGGG | -0.233 |
| TCCTCCCA | 0.0342 |
| CAGTGAGC | -0.118 |
| CCGCCAGG | -0.169 |
| TGCGACAA | 0.0936 |
| GAAGAAGC | -0.173 |
| AGGGGTTG | -0.0576 |
| ATGGTACA | -0.0607 |
| ACCCGAAC | 0.0408 |
| GGAGCCAA | -0.227 |
| GCCGGGGA | -0.121 |
| AACGCGGA | 0.00035 |
| GCTACTAA | -0.0302 |
| ATAGCATA | 0.104 |
| CGCCCCCA | -0.429 |
| ATTAGGGG | -0.206 |
| ACGAGACT | 0.199 |
| AAGGAGAT | -0.226 |
| CTAGCAAA | 0.0908 |
| AAGCCACT | -0.0712 |
| ACCCCTCC | -0.388 |

A few values from the list:
ATACGTAA | PBM E-score: 0.24
GCCGGGGA | PBM E-score: -0.121

Further records follow.

| Sequence | PBM E-score |
| --- | --- |
| AAGCAGAA | -0.0143 |
| CCTAGTGC | -0.0101 |
| AATTGGGC | -0.0883 |
| CCGCAGGC | -0.0707 |
| CATTCGAC | 0.143 |
| ACCCTACA | -0.153 |
| AACGTCTG | 0.0634 |
| GAAAGCTA | -0.129 |
| AGACAGTA | -0.0597 |
| AGGGGTAG | -0.239 |
| GATTTTCA | 0.216 |
| AATCCTAA | -0.147 |
| TCCACAAA | 0.00476 |
| ACTCAACT | -0.00532 |
| AATATCAT | 0.391 |
| GGAATCCA | 0.0505 |
| ACGATTTA | 0.295 |
| ACGTATGA | 0.332 |
| GGTAACGA | 0.166 |
| TGAATGCA | 0.0373 |
| CGTTCCCC | -0.0832 |
